Assay results reported in the supplement of paper PMC4635364.
Structures can show the parent of a compound that is named as a salt. This is one part of the list. This data set is noisy: repeats of one test often differ as much as different tests do.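 ReNCell VM, a human fetal ventral-midbrain neural progenitor line, was differentiated without mitogens. Blinded raters scored images stained for doublecortin (early neurons) or tyrosine hydroxylase (dopaminergic neurons) against untreated wells (0 = no change). Scores were averaged across repeats and both raters, and compounds averaging 2 or more were selected as hits for retesting.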

Legend:
ReNCell VM [1] = experiment: neuronal differentiation score (DCX+ cell fraction vs untreated, manual image score) (score (-3 to 3)); higher = more neuronal differentiation; settings: 2 uM, 2 weeks
ReNCell VM [2] = experiment: dopaminergic neuron differentiation score (TH+ cell fraction vs untreated, manual image score) (score (0 to 3)); higher = more TH+ dopaminergic neuron differentiation; settings: 2 uM, 4 weeks, BDNF 10 ng/ml + GDNF 10 ng/ml

O=C(c1ccc(F)cc1)C1CCN(CCn2c(=O)[nH]c3ccccc3c2=O)CC1 [Ketanserin tartrate hydrate]
neuronal differentiation score (ReNCell VM [1]; library: Prestwick): inactive: 0
dopaminergic neuron differentiation score (ReNCell VM [2]; library: Prestwick): inactive: 0

Cc1nnc(SCC2=C(C(=O)O)N3C(=O)[C@@H](NC(=O)Cn4cnnn4)[C@H]3SC2)s1 [Cefazolin sodium salt]
neuronal differentiation score (ReNCell VM [1]; library: Prestwick): inactive: 0
dopaminergic neuron differentiation score (ReNCell VM [2]; library: Prestwick): inactive: 0

COc1ccc(OC)c(C(O)CNC(=O)CN)c1 (configuration not stated)
neuronal differentiation score (ReNCell VM [1]; library: Spectrum): inactive: -1
dopaminergic neuron differentiation score (ReNCell VM [2]; library: Spectrum): inactive: 0

COc1ccc2c(c1)OC/C(=C\c1ccc(OC)c(O)c1)C2=O
neuronal differentiation score (ReNCell VM [1]; library: Spectrum): inactive: 0
dopaminergic neuron differentiation score (ReNCell VM [2]; library: Spectrum): inactive: 0

COC(=O)c1c(C)cc(OC(=O)c2c(C)cc(O)c(C=O)c2O)c(C)c1O [Atranorin]
neuronal differentiation score (ReNCell VM [1]; library: Phytochemical): inactive: 0
dopaminergic neuron differentiation score (ReNCell VM [2]; library: Phytochemical): inactive: 0

C#C[C@]1(O)CC[C@H]2[C@@H]3CCC4=C(CCC(=O)C4)[C@H]3CC[C@@]21C
neuronal differentiation score (ReNCell VM [1]; library: Spectrum): inactive: 0
dopaminergic neuron differentiation score (ReNCell VM [2]; library: Spectrum): inactive: 0

CC1(C)CC2C1CCC1(C)OC1CCC2(C)O (configuration not stated)
neuronal differentiation score (ReNCell VM [1]; library: Spectrum): inactive: 0
dopaminergic neuron differentiation score (ReNCell VM [2]; library: Spectrum): inactive: 0

Nc1nc(O)c2ncn(CCC(CO)CO)c2n1
neuronal differentiation score (ReNCell VM [1]; library: Spectrum): inactive: 0
dopaminergic neuron differentiation score (ReNCell VM [2]; library: Spectrum): inactive: 0

CCCCCCCCCCCCCCCC(=O)OC(CC(=O)O)C[N+](C)(C)C (racemic) [Palmitoyl-DL-Carnitine chloride]
neuronal differentiation score (ReNCell VM [1]; library: LOPAC): active: 2
dopaminergic neuron differentiation score (ReNCell VM [2]; library: LOPAC): inactive: 0

N[C@H]1CCN(O)C1=O
neuronal differentiation score (ReNCell VM [1]; library: Tocriscreen): inactive: 0
dopaminergic neuron differentiation score (ReNCell VM [2]; library: Tocriscreen): inactive: 0

CCOC(=O)[C@H](CCc1ccccc1)N[C@@H](C)C(=O)N1[C@H](C(=O)O)C[C@@H]2CCC[C@@H]21
neuronal differentiation score (ReNCell VM [1]; library: Spectrum): inactive: 0
dopaminergic neuron differentiation score (ReNCell VM [2]; library: Spectrum): inactive: 0

O=C(O)c1ccccc1C(=O)Nc1ccc(S(=O)(=O)Nc2nccs2)cc1
neuronal differentiation score (ReNCell VM [1]; library: Spectrum): inactive: 0
dopaminergic neuron differentiation score (ReNCell VM [2]; library: Spectrum): inactive: 0

Nc1nc(/C(=C/CC(=O)O)C(=O)N[C@@H]2C(=O)N3C(C(=O)O)=CCS[C@H]23)cs1
neuronal differentiation score (ReNCell VM [1]; library: Spectrum): inactive: 0
dopaminergic neuron differentiation score (ReNCell VM [2]; library: Spectrum): inactive: 0

COC(=O)Nc1nc2cc([S+]([O-])c3ccccc3)ccc2[nH]1 (configuration not stated) [Oxfendazol]
neuronal differentiation score (ReNCell VM [1]; library: Prestwick): inactive: 0
dopaminergic neuron differentiation score (ReNCell VM [2]; library: Prestwick): inactive: 0

COC(=O)C[C@H]1C2(C)CC34OC5(C)O[C@@]6([C@H](OC)C(OC(=O)C(C)C)[C@]7(C)C(/C(=C(/OC)C(C)C)C(=O)O[C@H]7c7ccoc7)[C@@]6(O5)[C@H](OC)[C@@]3(OC)C2OC(C)=O)[C@]14C (some centres not stated)
neuronal differentiation score (ReNCell VM [1]; library: Spectrum): inactive: 0
dopaminergic neuron differentiation score (ReNCell VM [2]; library: Spectrum): inactive: 0

c1ccc(-c2n[nH]c3c2oc2ccccc23)cc1
neuronal differentiation score (ReNCell VM [1]; library: Tocriscreen): inactive: 0
dopaminergic neuron differentiation score (ReNCell VM [2]; library: Tocriscreen): inactive: 0

CC(=O)CC(c1ccccc1)c1c(O)c2ccccc2oc1=O (configuration not stated) [Warfarin]
neuronal differentiation score (ReNCell VM [1]; library: Prestwick): inactive: 0
dopaminergic neuron differentiation score (ReNCell VM [2]; library: Prestwick): inactive: 0

COc1ccc(-c2oc3cc(OC)c(OC)c(OC)c3c(=O)c2OC)cc1OC
neuronal differentiation score (ReNCell VM [1]; library: Spectrum): inactive: 0
dopaminergic neuron differentiation score (ReNCell VM [2]; library: Spectrum): inactive: 0

CC(C)CCCC(C)C1CCC2C3=CCC4CC(O)CCC4(C)C3CCC21C (configuration not stated)
neuronal differentiation score (ReNCell VM [1]; library: Spectrum): inactive: 0
dopaminergic neuron differentiation score (ReNCell VM [2]; library: Spectrum): inactive: 0

CCN[C@H]1CN(CCCOC)S(=O)(=O)c2sc(S(N)(=O)=O)cc21 [Brinzolamide]
neuronal differentiation score (ReNCell VM [1]; library: Prestwick): inactive: 0
dopaminergic neuron differentiation score (ReNCell VM [2]; library: Prestwick): inactive: 0

C[C@@H]1CC[C@@]2(OC1)O[C@H]1C[C@H]3[C@@H]4CC[C@H]5C[C@@H](O)CC[C@]5(C)[C@H]4CC[C@]3(C)[C@H]1[C@@H]2C
neuronal differentiation score (ReNCell VM [1]; library: Spectrum): inactive: 0
dopaminergic neuron differentiation score (ReNCell VM [2]; library: Spectrum): inactive: 0

Fc1ccc([C@@H]2CCNC[C@H]2COc2ccc3c(c2)OCO3)cc1 [Paroxetine maleate]
neuronal differentiation score (ReNCell VM [1]; library: Tocriscreen): inactive: 0
dopaminergic neuron differentiation score (ReNCell VM [2]; library: Tocriscreen): inactive: 0

O=c1[nH]c(=O)c2nc3ccccc3nc2[nH]1 [Alloxazine]
neuronal differentiation score (ReNCell VM [1]; library: LOPAC): active: 2
dopaminergic neuron differentiation score (ReNCell VM [2]; library: LOPAC): inactive: 0

CCN1CCN(C(=O)N[C@@H](C(=O)N[C@@H]2C(=O)N3C(C(=O)O)=C(CSc4nnnn4C)CS[C@H]23)c2ccc(O)cc2)C(=O)C1=O [Cefoperazone dihydrate]
neuronal differentiation score (ReNCell VM [1]; library: Prestwick): inactive: 0
dopaminergic neuron differentiation score (ReNCell VM [2]; library: Prestwick): inactive: 0

Cc1c(-c2cnccn2)ssc1=S
neuronal differentiation score (ReNCell VM [1]; library: Spectrum): inactive: 0
dopaminergic neuron differentiation score (ReNCell VM [2]; library: Spectrum): inactive: 0

CC(C)CC(NC(=O)OCC1c2ccccc2-c2ccccc21)C(=O)O (stereo in doubt)
neuronal differentiation score (ReNCell VM [1]; library: Spectrum): inactive: 0
dopaminergic neuron differentiation score (ReNCell VM [2]; library: Spectrum): inactive: 0

CC[C@@H](CO)NCCN[C@@H](CC)CO
neuronal differentiation score (ReNCell VM [1]; library: Spectrum): inactive: 0
dopaminergic neuron differentiation score (ReNCell VM [2]; library: Spectrum): inactive: 0

CC(C)(Sc1cc(C(C)(C)C)c(O)c(C(C)(C)C)c1)Sc1cc(C(C)(C)C)c(O)c(C(C)(C)C)c1
neuronal differentiation score (ReNCell VM [1]; library: Spectrum): inactive: 0
dopaminergic neuron differentiation score (ReNCell VM [2]; library: Spectrum): inactive: 0

Oc1c(Cl)cc(Cl)c(Cl)c1Cc1c(O)c(Cl)cc(Cl)c1Cl [Hexachlorophene]
neuronal differentiation score (ReNCell VM [1]; library: Prestwick): inactive: 0
dopaminergic neuron differentiation score (ReNCell VM [2]; library: Prestwick): active: 3

C[N+](C)(C)C[C@H](O)CC(=O)[O-]
neuronal differentiation score (ReNCell VM [1]; library: Spectrum): inactive: 0
dopaminergic neuron differentiation score (ReNCell VM [2]; library: Spectrum): inactive: 0

Nc1ccc(S(=O)(=O)c2ccc(N)cc2)cc1
neuronal differentiation score (ReNCell VM [1]; library: Spectrum): inactive: 0
dopaminergic neuron differentiation score (ReNCell VM [2]; library: Spectrum): inactive: 0

CC(Cc1cccc(C(F)(F)F)c1)NCCOC(=O)c1ccccc1 (configuration not stated)
neuronal differentiation score (ReNCell VM [1]; library: Spectrum): inactive: 0
dopaminergic neuron differentiation score (ReNCell VM [2]; library: Spectrum): inactive: 0

O=C(O)C1=C[C@@H](O)[C@@H](O)[C@H](O)C1
neuronal differentiation score (ReNCell VM [1]; library: Spectrum): inactive: 0
dopaminergic neuron differentiation score (ReNCell VM [2]; library: Spectrum): inactive: 0

COc1ccc(Cc2cnc(N)nc2N)cc1OC
neuronal differentiation score (ReNCell VM [1]; library: Spectrum): inactive: 1
dopaminergic neuron differentiation score (ReNCell VM [2]; library: Spectrum): inactive: 0

N#C/C(=C\c1ccc(O)c(O)c1)C(=O)Nc1ccccc1
neuronal differentiation score (ReNCell VM [1]; library: Tocriscreen): inactive: 0
dopaminergic neuron differentiation score (ReNCell VM [2]; library: Tocriscreen): inactive: 1

NC(=O)c1ccc[n+]([C@@H]2O[C@H](COP(=O)([O-])OP(=O)(O)OC[C@H]3O[C@@H](n4cnc5c(N)ncnc54)[C@H](O)[C@@H]3O)[C@@H](O)[C@H]2O)c1
neuronal differentiation score (ReNCell VM [1]; library: Spectrum): inactive: 0
dopaminergic neuron differentiation score (ReNCell VM [2]; library: Spectrum): inactive: 0
